The results in this text go back to patent publication US10391098B2, “Antisense antibacterial compounds and methods” (priority 2014, dated 2019).

The assay relates to E. coli SMS-3-5. The assay is described as follows: MIC of classical antibiotics with added PPMOs that target resistance genes. The format is cell-based. The following applies: Escherichia coli, SMS35; ampicillin alone. From the text:
FIGS. 15A-15B show the minimum inhibitory concentration (MIC) of classical antibiotics with added PPMOs that target resistance genes in E. coli SMS-3-5. (FIG. 15A) MIC of ampicillin with blaT-(RXR)4XB (PPMO#66). (FIG. 15B) MIC of chloramphemicol with cmlA-(RXR)4XB (PPMO#67). N=3.
Minimal Inhibitory Concentration Assays.
Modulating antibiotic resistance with PPMOs could be an alternative therapeutic strategy. As proof of concept, PPMOs were designed to target specific, non-essential antibiotic resistance genes. blaT is part of the TEM beta-lactamase family and is found in environmental strains of E. coli, like SMS-3-5.

Regarding `CC1(C)S[C@@H]2[C@H](NC(=O)[C@H](N)c3ccccc3)C(=O)N2[C@H]1C(=O)O` [ampicillin, reference compound], the MIC (as a rule, the smallest concentration in the dilution series that meets the test's criterion for growth inhibition) is above 1020 µg/mL.
